Reference: publication PMC10102067 (Communications Biology, 2023)

Test: general procedure: peptide synthesis; PyBOP, DIPEA
Conditions: conjugation step, cyclic, sequence written open

## Vanco-8C-Tz-DMACA
UV @ 200 nm and ELSD
  final purity (method not given): > 95%
  conjugation yield: 16%

The same purity stands for every peptide and may come from a single statement.
